Source: PubChem BioAssay AID1159506 (NCATS, 2015).

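Genome-wide siRNA knockdown in TC32 Ewing sarcoma cells, comparing luciferase light from an NR0B1-promoter reporter with a CMV-promoter reporter 48 hours after transfection. Each siRNA was applied at 20 nM. A z-score of the log NR0B1-over-CMV signal, less the median of siRNAs with the same seed; more negative means a stronger specific loss of the NR0B1 reporter.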

The strongest results of the screen are mostly left out here. Sequences are the guide (antisense) strand, without overhang.

| # | Sequence | gene | seed-corrected z-score |
|---|---|---|---|
| 1 | `UUUUGUAAAUUCCUCAGGC` | IGFL2 | 0.8381 |
| 2 | `UGAAUUCUGAGCUGGAUCC` | LOC646030 | -1.23 |
| 3 | `UUCGUUGACGAGGAAUUCG` | HOXD12 | 0.3636 |
| 4 | `UUUAUGUAGCGGAUGGCGG` | ASCL5 | -0.4564 |
| 5 | `AUGGUGACGAUAUCCAGGC` | CFAP46 | -0.7373 |
| 6 | `AUAUGGACAACAUCGCUGG` | ATG2B | 1.055 |
| 7 | `UUAGUUUACUGAAGCGAUC` | RIOK3 | -0.05167 |
| 8 | `AGACUUUCUCUCUAGUUUG` | ZNF556 | -1.243 |
| 9 | `UUAGAGGUCACGGAUGUCA` | LHX9 | 0.4543 |
| 10 | `UUCUCGAGAAUACUGCUGC` | NRIP1 | 0.9148 |
| 11 | `UAACUUCACAUACAGCUUG` | RPS26P28 | 0.3317 |
| 12 | `UAUAUGACAGGUAAUGUUG` | CCNB1 | -0.6437 |
| 13 | `UCUGACGUGACUGUUGAGG` | MAZ | 0.5909 |
| 14 | `UUAGUAUUCCUGAUGUAGG` | GALNT16 | -0.01353 |
| 15 | `UAUCUGACGGAAGACAACC` | MELK | -0.797 |
| 16 | `UUUGGUGGAAAGUUGACUC` | PLEKHA4 | 0.1495 |
| 17 | `UCAGUAUAUGAAGCAGUCC` | GLT8D1 | -0.3056 |
| 18 | `AUUGUAUACAUGCAGGGCG` | PDPR | 0.6404 |
| 19 | `UUGGGAUCGAAGAAGGUGA` | CLIP3 | -0.3359 |
| 20 | `UACGCGUUGAAGAGAAUCA` | PALD1 | 0.5092 |
| 21 | `UUGGUAACUAAAUCUAACC` | CLHC1 | 0.1953 |
| 22 | `AAUAGUCAAAUGUCGGUCC` | B4GALT3 | 0.3261 |
| 23 | `UCAUGUUCAUAAUUCAGCC` | UTP4 | -0.0529 |
| 24 | `UUGCUUGUGGUUCUGGUCC` | GHSR | 0.7392 |
| 25 | `UCAGUCUCUCUAGCUGUCU` | TSR2 | 0.9408 |
| 26 | `UUCCUAACGACAGCUGGUC` | RPAP1 | 0.8336 |
| 27 | `UCAUGAGCGAUCAACAGUC` | CCNJ | 0.8531 |
| 28 | `UUGGUUACUGGUUCCAACC` | ALMS1P1 | -0.09963 |
| 29 | `UUAGUACUUAAGGAGCUGG` | F2RL2 | -1.538 |
| 30 | `UCUCUUUAAACCGACAGCU` | FAM101A | -1.623 |
| 31 | `UACGUUUUAAUAUGCGGUG` | PTEN | 0.3339 |
| 32 | `UUUCGAGUCUGUCUCGUGG` | UNK | -0.2736 |
| 33 | `AGAAUCGUCAGAGCUGUCG` | LINS1 | -0.8705 |
| 34 | `UAAGCGAGCGAAGUCCUCU` | LGI4 | 0.2654 |
| 35 | `UUACCUCCAAUUCUGGUUG` | CARD6 | 0.298 |
| 36 | `UUGCCGGUGAUGAUAAUCA` | LMF2 | -0.7146 |
| 37 | `UAAACAAUAGGGUUUAGAG` | OR52N5 | 0.0661 |
| 38 | `UGUCCAUUUAGGGUUGAGG` | ZNF91 | 0.2857 |
| 39 | `UUCGUUCACAUCGAGAAGC` | RUNX1T1 | 0.2371 |
| 40 | `UAGACAUAGAUGACACUCC` | OR1L4 | 0.008165 |
| 41 | `UAAUAGUAUACCCAUAUCC` | MINPP1 | -0.305 |
| 42 | `UACAAUUCAAGACACUUUG` | CXCL5 | 1.532 |
| 43 | `UCUGGGUCAAAGAAGAUGA` | HNF4A | 0.4151 |
| 44 | `UGACUUCGCCGCAUCCAUC` | TMEM176B | 0.01888 |
| 45 | `UCACUUUCUAUCUCACUGG` | BTN3A2 | 0.2467 |
| 46 | `UCACAGUGCUCGAUCUUGC` | RSPO1 | 0.7656 |
| 47 | `UUUCGGCAUACUGUGGUCU` | MORF4 | -0.02636 |
| 48 | `UUGACUAACUCCUACAGCC` | STAU1 | 0.1355 |
| 49 | `UUCUUCAGCAUUCCACUUC` | CHRND | 0.5498 |
| 50 | `UCUGGGUGAAGCUUUUUCC` | ZNF32 | 0.3826 |
| 51 | `UGUAUUAUACACCACAUUG` | VNN2 | -0.4011 |
| 52 | `UUUCUUGACUAAAAUGCCC` | ZNF383 | 0.7735 |
| 53 | `UCUAAUACGAUAAUAAGCC` | TMEM168 | -0.07419 |
| 54 | `UUAGGAAUAACACUUCCAG` | FOXD4L1 | 1.499 |
| 55 | `UCUUCUACCAUGUUGAUUC` | KARS | -1.182 |
| 56 | `UCAAAUUCUGGGCCUGUUC` | C3orf35 | -0.7271 |
| 57 | `UCUGCUAUUACAAAGACGU` | GTF2H5 | -0.5653 |
| 58 | `UCUGGUGUCCCGUUUUGCG` | CXXC4 | 0.05198 |
| 59 | `AUAGGGUACAGGGUCAUUC` | TAF2 | 0.1805 |
| 60 | `UCUGGUUCAAGUCUAGGAU` | IGFL4 | -0.5136 |
| 61 | `UUAGUUCACCAGACCGAGC` | KLF3 | -0.554 |
| 62 | `UCAGCAUCGUCCAAUAUCC` | BCRP3 | -0.4923 |
| 63 | `UGAGUUUCCGUGAGGCUGA` | EMX2 | -1.466 |
| 64 | `UUCUUGAUCCUGGAUUCGC` | TRIP4 | -0.1891 |
| 65 | `UAUAGACCAAGGAGCAAGG` | OR4X1 | 0.2654 |
| 66 | `UUCCGAAUCAGAGAGAUCA` | FAM217B | 0.02958 |
| 67 | `UCUGAUUCGGGAACUAAAC` | UBALD2 | -0.3181 |
| 68 | `UUAUAGCCUAAAGCUUUGG` | RABEP1 | 0.7236 |
| 69 | `ACUUUGUGCAUCAAGUUCC` | SLAIN2 | -0.6761 |

For reference, 7 entries once more:

| Sequence | gene | seed-corrected z-score |
|---|---|---|
| `UUACCUCCAAUUCUGGUUG` | CARD6 | 0.298 |
| `UUCGUUCACAUCGAGAAGC` | RUNX1T1 | 0.2371 |
| `UGUCCAUUUAGGGUUGAGG` | ZNF91 | 0.2857 |
| `UCAGCAUCGUCCAAUAUCC` | BCRP3 | -0.4923 |
| `UCACUUUCUAUCUCACUGG` | BTN3A2 | 0.2467 |
| `UUAGUAUUCCUGAUGUAGG` | GALNT16 | -0.01353 |
| `AGAAUCGUCAGAGCUGUCG` | LINS1 | -0.8705 |